Laboratory results published in publication doi:10.1101/162271.
These are yes or no findings as the source states them, for the method shown. Some entries that bind do so weakly or less than the wild type.

By UniProt entry, the sequences of proteins in these tests, tags left out.
UniProt Q9C9W9: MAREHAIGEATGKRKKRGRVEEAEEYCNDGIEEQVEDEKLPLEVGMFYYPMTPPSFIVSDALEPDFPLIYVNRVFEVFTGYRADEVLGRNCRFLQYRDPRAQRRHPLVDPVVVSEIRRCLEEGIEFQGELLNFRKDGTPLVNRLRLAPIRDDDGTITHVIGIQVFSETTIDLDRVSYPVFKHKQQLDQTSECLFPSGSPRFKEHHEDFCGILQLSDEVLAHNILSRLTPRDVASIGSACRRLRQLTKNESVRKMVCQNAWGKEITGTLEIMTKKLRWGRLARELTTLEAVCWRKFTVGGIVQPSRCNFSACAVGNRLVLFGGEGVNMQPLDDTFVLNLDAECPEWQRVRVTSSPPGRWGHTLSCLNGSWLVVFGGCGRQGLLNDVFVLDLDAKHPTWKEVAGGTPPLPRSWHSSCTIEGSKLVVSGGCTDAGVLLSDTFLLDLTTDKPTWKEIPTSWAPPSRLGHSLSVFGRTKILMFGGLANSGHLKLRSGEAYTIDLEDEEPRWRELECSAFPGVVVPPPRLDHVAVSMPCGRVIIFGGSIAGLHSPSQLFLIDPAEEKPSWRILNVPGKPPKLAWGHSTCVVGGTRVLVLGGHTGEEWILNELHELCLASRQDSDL
UniProt Q8W420: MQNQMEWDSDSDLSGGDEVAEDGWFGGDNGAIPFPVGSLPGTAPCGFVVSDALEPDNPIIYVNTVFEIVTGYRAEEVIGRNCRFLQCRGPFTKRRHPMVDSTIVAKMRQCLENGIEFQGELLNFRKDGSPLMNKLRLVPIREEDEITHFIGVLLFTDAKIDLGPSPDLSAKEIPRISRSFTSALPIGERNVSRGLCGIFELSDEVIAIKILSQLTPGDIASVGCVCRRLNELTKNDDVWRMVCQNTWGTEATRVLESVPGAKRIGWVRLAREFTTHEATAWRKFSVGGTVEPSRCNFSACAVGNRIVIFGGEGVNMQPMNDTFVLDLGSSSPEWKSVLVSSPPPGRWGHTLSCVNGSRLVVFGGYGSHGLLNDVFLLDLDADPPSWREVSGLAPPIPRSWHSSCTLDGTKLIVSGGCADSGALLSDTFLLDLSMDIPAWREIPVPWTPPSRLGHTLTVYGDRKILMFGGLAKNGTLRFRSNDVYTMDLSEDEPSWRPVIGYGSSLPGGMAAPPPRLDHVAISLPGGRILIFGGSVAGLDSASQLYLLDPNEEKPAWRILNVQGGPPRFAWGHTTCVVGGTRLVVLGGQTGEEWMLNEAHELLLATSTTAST
UniProt Q94BT6: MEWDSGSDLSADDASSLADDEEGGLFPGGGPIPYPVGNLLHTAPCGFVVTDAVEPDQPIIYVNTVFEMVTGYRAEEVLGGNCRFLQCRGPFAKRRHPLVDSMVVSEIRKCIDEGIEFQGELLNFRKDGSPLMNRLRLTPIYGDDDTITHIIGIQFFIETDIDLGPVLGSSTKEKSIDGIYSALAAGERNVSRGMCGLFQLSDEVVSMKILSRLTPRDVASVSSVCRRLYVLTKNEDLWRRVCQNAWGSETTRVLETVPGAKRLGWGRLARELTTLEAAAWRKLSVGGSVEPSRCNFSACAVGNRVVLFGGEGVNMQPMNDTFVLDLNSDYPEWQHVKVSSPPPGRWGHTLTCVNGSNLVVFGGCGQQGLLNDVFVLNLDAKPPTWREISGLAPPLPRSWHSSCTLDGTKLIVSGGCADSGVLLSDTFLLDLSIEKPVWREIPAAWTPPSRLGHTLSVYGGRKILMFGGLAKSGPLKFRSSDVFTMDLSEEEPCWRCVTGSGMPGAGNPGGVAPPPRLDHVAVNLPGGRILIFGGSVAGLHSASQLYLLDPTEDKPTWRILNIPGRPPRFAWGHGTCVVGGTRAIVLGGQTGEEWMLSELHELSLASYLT

Target: T1, CDF6, full-length, yeast two-hybrid bait (Arabidopsis thaliana) (UniProt Q9LQX4)
T1 sequence: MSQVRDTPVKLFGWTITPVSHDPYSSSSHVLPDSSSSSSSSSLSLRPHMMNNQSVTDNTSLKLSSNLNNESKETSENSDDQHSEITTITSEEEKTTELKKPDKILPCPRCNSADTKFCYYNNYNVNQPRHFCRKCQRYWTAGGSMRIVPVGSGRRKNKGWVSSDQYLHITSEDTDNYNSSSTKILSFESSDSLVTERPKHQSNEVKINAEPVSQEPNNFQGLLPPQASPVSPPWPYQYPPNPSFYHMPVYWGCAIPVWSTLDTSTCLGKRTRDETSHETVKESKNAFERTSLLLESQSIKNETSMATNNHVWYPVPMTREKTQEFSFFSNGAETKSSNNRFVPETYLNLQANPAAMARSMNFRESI
Experiment: two-hybrid

Molecule	binding
FKF1, yeast two-hybrid prey (from UniProt Q9C9W9 1-619)	binds
LKP2, yeast two-hybrid prey (from UniProt Q8W420 1-611)	binds
ZTL, yeast two-hybrid prey (from UniProt Q94BT6 1-609)	binds
GI, full-length, yeast two-hybrid prey (protein, UniProt Q9SQI2 1-1173) MASSSSSERWIDGLQFSSLLWPPPRDPQQHKDQVVAYVEYFGQFTSEQFPDDIAELVRHQYPSTEKRLLDDVLAMFVLHHPEHGHAVILPIISCLIDGSLVYSKEAHPFASFISLVCPSSENDYSEQWALACGEILRILTHYNRPIYKTEQQNGDTERNCLSKATTSGSPTSEPKAGSPTQHERKPLRPLSPWISDILLAAPLGIRSDYFRWCSGVMGKYAAGELKPPTIASRGSGKHPQLMPSTPRWAVANGAGVILSVCDDEVARYETATLTAVAVPALLLPPPTTSLDEHLVAGLPALEPYARLFHRYYAIATPSATQRLLLGLLEAPPSWAPDALDAAVQLVELLRAAEDYASGVRLPRNWMHLHFLRAIGIAMSMRAGVAADAAAALLFRILSQPALLFPPLSQVEGVEIQHAPIGGYSSNYRKQIEVPAAEATIEATAQGIASMLCAHGPEVEWRICTIWEAAYGLIPLNSSAVDLPEIIVATPLQPPILSWNLYIPLLKVLEYLPRGSPSEACLMKIFVATVETILSRTFPPESSRELTRKARSSFTTRSATKNLAMSELRAMVHALFLESCAGVELASRLLFVVLTVCVSHEAQSSGSKRPRSEYASTTENIEANQPVSNNQTANRKSRNVKGQGPVAAFDSYVLAAVCALACEVQLYPMISGGGNFSNSAVAGTITKPVKINGSSKEYGAGIDSAISHTRRILAILEALFSLKPSSVGTPWSYSSSEIVAAAMVAAHISELFRRSKALTHALSGLMRCKWDKEIHKRASSLYNLIDVHSKVVASIVDKAEPLEAYLKNTPVQKDSVTCLNWKQENTCASTTCFDTAVTSASRTEMNPRGNHKYARHSDEGSGRPSEKGIKDFLLDASDLANFLTADRLAGFYCGTQKLLRSVLAEKPELSFSVVSLLWHKLIAAPEIQPTAESTSAQQGWRQVVDALCNVVSATPAKAAAAVVLQAERELQPWIAKDDEEGQKMWKINQRIVKVLVELMRNHDRPESLVILASASDLLLRATDGMLVDGEACTLPQLELLEATARAIQPVLAWGPSGLAVVDGLSNLLKCRLPATIRCLSHPSAHVRALSTSVLRDIMNQSSIPIKVTPKLPTTEKNGMNSPSYRFFNAASIDWKADIQNCLNWEAHSLLSTTMPTQFLDTAARELGCTISLSQ	binds
